According to patent US20240182413A1, “INSECTICIDAL COMPOUNDS” (Pluton Biosciences, Inc., priority 2022, published 2024):
The name of at least one read-out is uncertain.

Test system: Spodoptera frugiperda (fall armyworm) first instar larvae
Test: Spodoptera frugiperda killing assay (diet-surface overlay)
Assay type: in vivo
Details: calculated from killing dose curves FIG. 3D to 3NN, listed as BIM-1
Protocol: Insect killing assays. Each compound was dissolved in dimethyl sulfoxide (DMSO). Killing dose curves were constructed for each compound by producing a two-fold dilution series of the compound (e.g., comprising approximately 16 serial dilutions of a stock for 3,3′-diindolylmethane and 3-((1H-Indol-2-yl)methyl)-1H-indole and comprising approximately 12 serial dilutions of a stock for 3,3′-diindolyl and 3,3′-(pyridin-4-ylmethylene)bis(1H-indole)). Dilutions were made in sterile NYSM broth as described above. The two-fold dilution series were tested in a killing bioassay as described below. Data were collected to construct a dose curve and determine the half-maximal lethal concentration (LC50) value.
Bioassays were performed using first instar larvae of the Lepidopteran species Spodoptera frugiperda (fall armyworm), with an N=16 for each concentration of compound tested. S. frugiperda larvae were purchased from Benzon Research, Inc. (Carlisle, PA). A diet-surface overlay format was used in which 1 milliliter of standard lepidopteran diet was placed in each well. One hundred microliters of sample were pipetted into each well and allowed to dry. A DMSO control was included with each set of samples.
During the development of embodiments of the technology described herein, experiments were conducted to test the killing of arundine against a panel of 11 insect species. […]

SMILES: c1ccc2c(Cc3c[nH]c4ccccc34)c[nH]c2c1 [Arundine, 3,3′-diindolylmethane]
- LD50: 2478 µM
